Experimental findings from PubChem BioAssay AID493014 (National Center for Advancing Translational Sciences (NCATS), 2011) are described below.

SMILES strings stand for the structures. Some of the results follow. Shown are side measurements of this screen, not its main read-out; they come without a call. Most of these compounds were active or inconclusive in the main read-out, so they are no random draw. Words in brackets tell the shape of the fitted curve; partial curves, single points and poor fits give uncertain potencies.

This experiment is described as follows: qHTS Assay to Find Inhibitors of Chronic Active B-Cell Receptor Signaling. As to conditions: ABC-DLBCL IkBa-CBG/CBR reporter, luminescence ratio (green luciferase fused to IkBa over red control in TMD8 lymphoma cells), 4 h. The procedure, abridged: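 Doxycycline induced both beetle luciferases in TMD8 lymphoma cells; IKK-driven degradation limits the IkappaBalpha-fused green signal, while red luminescence normalises for cell number and nonspecific effects. Compounds tested up to 46 uM, 4 hrs.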
(In general: Quantitative high-throughput screening tests each substance at several concentrations.)

The mark [1] stands for this setting: measured here: CBR red luminescence, cell number.
Where [2] appears, read: measured here: IkBa-CBG green luminescence.

What is called AC50 is the concentration at which the activity in the assay is half-maximal. Turning to `Cc1c(Br)c([N+](=O)[O-])nn1CC(=O)Nc1ccc(Cc2ccncc2)cc1`, under setting [1], the AC50 was 18.4 µM [falling, single point].

`COc1cc(C(=O)Nc2nc(N)n(-c3ccccc3)n2)cc(OC)c1OC`: under setting [1], the AC50 was 5.8 µM [rising, partial curve, poor fit].

Consider `O=C(N/N=C/c1ccncc1)c1cccc(N/N=C/c2ccncc2)c1`, for which the AC50 under setting [1] was 10 µM [falling, partial curve, poor fit].

Regarding `O=C(C1=C[C@H](C2CCCCC2)C[C@H](OCc2ccc(CO)cc2)O1)N1CCN(Cc2ccccc2)CC1`, under setting [1], the AC50 was 15.8 µM [falling, single point].

On to `O=C(NNC(=O)c1cc2cc(Br)ccc2oc1=O)c1ccc(O)cc1O`, for which, under setting [1], the concentration at half-maximal activity (AC50) is 15.8 µM [falling, partial curve].

In the case of `CC(C#N)OC(=O)c1cccnc1SCC(=O)Nc1ccc2c(c1)OCO2` (stereo unspecified), the AC50 under setting [1] was 11.6 µM [rising, partial curve, poor fit].

On to `CCCCn1c(SCC(=O)NCc2ccco2)nc2ccc(N3CCOCC3)cc2c1=O`, for which, under setting [1], the AC50 is 7.31 µM [falling, partial curve].

Turning to `Cc1cc(C)c(C#N)c(SCc2ccccc2C)n1`, the AC50 under setting [1] is 13 µM [rising, partial curve, poor fit].

In the case of `O=C(CC(CC(=O)c1ccc(Br)cc1)c1cccnc1)c1ccc(Br)cc1`, under setting [1], the AC50 is 0.1 µM [rising, full curve, poor fit].

Consider `COc1ccccc1CNC(=O)c1c(-c2ccccc2)nn(-c2ccccc2)c1C`, for which the half-maximal activity concentration (AC50) under setting [1] is 7.31 µM [falling, partial curve, poor fit].

As for `O=C(Cc1ccccc1)N1CCN=C1SCc1cccc([N+](=O)[O-])c1`, under setting [1], the AC50 was 8.91 µM [falling, partial curve, poor fit].

Turning to `O=C(COc1ccccc1)Nc1ccc(S(=O)(=O)N2CCCCCC2)cc1`, the AC50 under setting [1] was 2.91 µM [falling, single point].

Regarding `O=C(COC(=O)[C@@H]1CCCN1S(=O)(=O)c1ccccc1F)Nc1ccc(OC(F)F)cc1`, the AC50 under setting [1] was 12.6 µM [rising, single point].

As to `COc1ccc(-c2csc3ncn(-c4ccc(C)cc4)c(=O)c23)cc1OC`, the AC50 under setting [1] is 1.12 µM [rising, full curve, poor fit].

For the molecule `O=C(Nc1ccc(C(F)(F)F)cc1)c1cc(S(=O)(=O)NC2CCCCC2)ccc1F`, the AC50 under setting [1] is 15.8 µM [falling, single point].

Consider `COc1ccccc1C1C2=C(COC2=O)Nc2cc3c(cc21)OCO3` (stereo unspecified), for which the AC50 was 0.562 µM [rising, full curve, poor fit] under setting [1] and 0.562 µM [falling, full curve, poor fit] under setting [2].

In the case of `CCc1ccc(/C=C/C(=O)C2C(=O)c3ccccc3C2=O)cc1`, the AC50 under setting [1] is 3.55 µM [falling, full curve].

On to `Cc1ccc2[nH]cc(S(=O)(=O)c3ccc(F)cc3)c(=O)c2c1`, for which the AC50 under setting [1] is 35.5 µM [falling, partial curve, poor fit].

As for `CN(C)c1ccc(S(=O)(=O)NCC(=O)NCCOc2ccccc2F)cc1[N+](=O)[O-]`, under setting [1], the AC50 is 4.11 µM [rising, partial curve, poor fit].

For `CCCc1cc(C(=O)NCc2ccccc2)no1`, the AC50 under setting [1] was 20.6 µM [falling, partial curve].

With `COc1ccc(-c2cnnn2-c2ccc([N+](=O)[O-])cc2)cc1`, under setting [1], the AC50 is 3.98 µM [rising, full curve].

As to `COc1ccc(Br)cc1/C=C/C(=O)Nc1ccc(C)cc1`, under setting [1], the concentration at half-maximal activity (AC50) is 23.1 µM [falling, single point].

As for `C=CCNC(=O)C1CC2Cn3c(nc4cc5ccccc5cc43)C2N1C` (stereo unspecified), the AC50 under setting [1] was 17.8 µM [rising, single point].

Turning to `CN1CCN(C(=O)c2ccc3c(c2)N(Cc2cccc(Cl)c2)C(=O)c2ccccc2S3(=O)=O)CC1`, under setting [1], the AC50 is 15.8 µM [falling, partial curve, poor fit].

As to `Cn1nccc1C(=O)Nc1ccc(OC(=O)c2ccnn2C)cc1`, the AC50 under setting [1] is 9.2 µM [rising, partial curve, poor fit].

`Cc1ccc(NC(=O)c2cnccn2)cc1`: under setting [1], the AC50 is 14.1 µM [falling, single point].

In the case of `CCN(CC)c1ccc(/C=C2\CCC(/C=C(\C#N)C(=O)Nc3ccccc3F)=C2N2CCOCC2)cc1`, the AC50 under setting [1] was 25.9 µM [rising, partial curve, poor fit].

For the molecule `C=CCNC(=S)N/N=C(\C)c1cc(OC)c(OC)c(OC)c1`, the AC50 by setting is: under setting [1], 29.1 µM [falling, single point]; under setting [2], 23.1 µM [falling, single point].

For the molecule `COc1ccc(C(=O)Oc2ccc3c(c2)OCO3)cc1OC`, the AC50 under setting [1] is 7.08 µM [rising, partial curve, poor fit].

Consider `Clc1ccc(Cn2ncc3c(N4CCCC4)ncnc32)cc1`, for which, under setting [1], the AC50 was 18.4 µM [falling, partial curve, poor fit].

Turning to `Fc1ccc(-[n+]2nc(Nc3ccccc3)sc2-c2c(Cl)cccc2Cl)cc1`, the half-maximal activity concentration (AC50) under setting [1] is 12.6 µM [falling, partial curve, poor fit].

On to `Cc1ccc(C)c(C(=O)Cn2ncc(Cl)c(Cl)c2=O)c1`, for which the AC50 is, setting by setting: under setting [1], 13 µM [falling, partial curve]; under setting [2], 10.3 µM [rising, partial curve, poor fit].

Regarding `CC(Cc1ccccc1)NC(=O)/C=C/c1ccc([N+](=O)[O-])cc1` (stereo unspecified), the concentration at half-maximal activity (AC50) under setting [1] is 7.31 µM [rising, full curve, poor fit].

Consider `CC(C)(C)C(=O)NC(=S)NNC(=O)c1sc2ccccc2c1Cl`, for which the AC50 is, setting by setting: under setting [1], 6.51 µM [rising, single point]; under setting [2], 6.51 µM [falling, single point].

Turning to `Cc1ccc(C)c(OCCCN2CCCC2)c1`, the AC50 under setting [1] is 23.1 µM [rising, single point].

In the case of `CN1C(=O)/C(=C/c2ccc(OCc3cccc(F)c3)cc2)NC1=S`, the AC50 under setting [1] is 15.8 µM [rising, partial curve, poor fit].

For `COc1cc(O)sc1C=Nc1ccc(Cl)cc1`, the AC50 under setting [2] was 11.2 µM [falling, single point].

As to `Cc1cc(C)cc(N2CC(O)=C(c3nc4ccccc4c(=O)[nH]3)C2=N)c1`, the AC50 under setting [1] is 12.6 µM [rising, partial curve] and the AC50 under setting [2] was 11.2 µM [falling, partial curve].

As to `Cc1nn(-c2ccccc2)c2nc(C(F)F)cc(C(F)F)c12`, the AC50 under setting [1] was 25.9 µM [rising, single point].

Consider `CC(=O)Cn1nnc2sc3c(c2c1=O)CCC(C(C)(C)C)C3` (stereo unspecified), for which, under setting [1], the AC50 was 11.2 µM [rising, single point].

For the molecule `CCOC(=O)c1c(C)[nH]c(C(=O)OCC(=O)c2ccc(OC)cc2OC)c1C`, under setting [1], the AC50 is 25.9 µM [rising, partial curve, poor fit].

For the molecule `Cc1ccc(OCC(=O)Nc2cccc(S(=O)(=O)NC3=NCCCCC3)c2)cc1C`, the AC50 under setting [1] is 17.8 µM [falling, partial curve, poor fit].

Regarding `CC(C)(C)c1ccc(C(=O)NCCOc2ccccc2)cc1`, the AC50 under setting [1] was 11.2 µM [rising, partial curve, poor fit].

Consider `CCN(CC)C(=S)SCC(=O)Nc1nc(-c2ccccc2)c(-c2ccccc2)o1`, for which the AC50 under setting [1] is 4.61 µM [falling, partial curve, poor fit].

As to `COc1cc(OC)cc(C2=NC3(CCC(C)CC3)NC2=S)c1` (stereo unspecified), under setting [2], the AC50 is 14.1 µM [rising, partial curve, poor fit].

Turning to `COc1ccc2c(CC(=O)OCC(=O)Nc3ccc(C)cc3)coc2c1`, the AC50 under setting [1] was 5.17 µM [rising, single point].

Take `CCC(=O)Nc1ccc(-c2nnc(SCc3ccc(C(=O)Nc4nccs4)cc3)n2CC)cc1`: under setting [1], the concentration at half-maximal activity (AC50) is 0.501 µM [falling, full curve, poor fit].

On to `Cc1ccc(NC2CC(=O)N(c3ccc(N4CCCCC4)cc3)C2=O)cc1` (stereo unspecified), for which, under setting [1], the AC50 is 25.9 µM [falling, partial curve, poor fit].

On to `Cc1oc2cc3c(C(=O)N4CCCCC4)c(C)oc3cc2c1C(=O)N1CCCCC1`, for which, under setting [1], the AC50 is 11.2 µM [falling, partial curve].

For `COc1ccc(NC(=O)c2nc[nH]c2C(=O)N[C@@H](CC(C)C)C(=O)OC(C)(C)C)cc1`, the AC50 under setting [1] was 20 µM [rising, single point].

`O=C(NN=C1CCN(Cc2ccccc2)CC1)c1ccccc1`: under setting [1], the AC50 was 9.2 µM [falling, partial curve].

On to `CC(C)(C)c1cc(=O)n2c(nc3ccccc32)[nH]1`, for which the AC50 under setting [1] was 11.2 µM [falling, single point].

For the molecule `O=C(Nc1ccccc1)C1=C[C@H](c2ccccc2)C[C@H](OCc2ccc(CO)cc2)O1`, the half-maximal activity concentration (AC50) under setting [1] is 25.1 µM [falling, single point].

Regarding `COc1ccc(Cn2ccnc2)cc1[N+](=O)[O-]`, the AC50 under setting [1] is 29.1 µM [rising, single point].

Take `COc1ccc(CCNC(=O)CSc2nnc(-c3ccc(F)cc3)o2)cc1OC`: the AC50 under setting [1] is 8.91 µM [rising, partial curve, poor fit].

As for `COc1ccc(C(=O)O/N=C(\N)c2ccccc2)cc1OC`, under setting [1], the concentration at half-maximal activity (AC50) is 3.98 µM [falling, full curve, poor fit].

`O=C(NCCCN1CCOCC1)c1ccc2c(c1)N(Cc1ccc(Cl)cc1)C(=O)c1ccccc1S2=O` (stereo unspecified): the AC50 under setting [1] was 5.01 µM [falling, partial curve].

For the molecule `S=C(NCCc1ccccc1)N/N=C/c1c(Cl)cccc1Cl`, the AC50 under setting [1] is 20.6 µM [rising, single point].

Consider `N#CCCn1cc(C=C(C#N)C#N)c(-c2ccc(Cl)cc2)n1`, for which, under setting [1], the AC50 is 15.8 µM [falling, single point].

On to `CCN(CC1COc2ccccc2O1)C(=O)c1ccc(Cl)c(S(=O)(=O)N2CC(C)OC(C)C2)c1` (stereo unspecified), for which the AC50 under setting [1] is 25.9 µM [falling, partial curve, poor fit].

`O=C(OCN1C(=O)c2ccccc2C1=O)c1cccc(S(=O)(=O)N2CCOCC2)c1`: under setting [1], the AC50 is 1.26 µM [rising, partial curve, poor fit].
